# Experimental data: PubChem BioAssay AID1259308 (NCATS, 2017)
# Aim: 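Knock-downs that increase output of a recombinant reporter protein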 (primary screen)
# Cell system: human HEK293 embryonic kidney cells stably expressing firefly luciferase (HEK-CMV-Luc2-Hygro)
# Reagent: single siRNA against human genes, 0.8 pmol siRNA per well
# Timing: 72 h
# Detection: 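Reporter luminescence and viable-cell signal on separate replicate plates, given as percent of non-targeting control and median/MAD z-scores, plus per-cell luciferase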
# Direction: total luciferase, z-score and total luciferase, % of control: higher = more reporter protein produced; luciferase per cell, z-score: higher = more reporter output per viable cell; viable cells, % of control: higher = more viable cells
# Call rule: 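An siRNA counts as active if its total luciferase robust z-score exceeds 3; genes with two or more such siRNAs out of three were retested with fresh siRNAs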
# Calls: active = raised luciferase; inactive = no rise
# This is an unselected part of about 59,000 deposited reagents. About 1,510 of all reagents (2.6%) were called active. 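Calls use total luciferase alone and ignore viability, so some active siRNAs may act by altering cell number.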 A number with no mark means an inactive call. The numbers tell different reagents against one gene apart. Reagent sequences are not shown.
target,siRNA no.,"total luciferase, z-score","total luciferase, % of control","luciferase per cell, z-score","viable cells, % of control"
RPL9P11 (GeneID 642740),1,0.621,94.2,0.136,102
RPL9P11 (GeneID 642740),2,-0.553,70.9,-0.483,89.9
RPL9P11 (GeneID 642740),3,-0.309,75.7,-0.743,103
GPR101 (GeneID 83550),1,-0.0454,81,-0.465,102
GPR101 (GeneID 83550),2,-0.968,62.6,-1.51,104
GPR101 (GeneID 83550),3,-0.241,77.1,-0.257,92.2
HMGN3 (GeneID 9324),1,0.186,85.6,0.244,89.7
HMGN3 (GeneID 9324),2,-1.2,58,-0.18,68
HMGN3 (GeneID 9324),3,0.183,85.5,-0.491,109
SMPD2 (GeneID 6610),1,-0.816,65.7,-1.27,103
SMPD2 (GeneID 6610),2,-0.092,80.1,-0.88,113
SMPD2 (GeneID 6610),3,-2.49,32.3,-1.45,53
BORCS6 (GeneID 54785),1,-0.525,71.4,-0.435,89.5
BORCS6 (GeneID 54785),2,-0.0401,81.1,0.452,80.4
BORCS6 (GeneID 54785),3,0.438,90.6,1.1,75.8
CCDC198 (GeneID 55195),1,-1.36,54.9,-1.38,88.1
CCDC198 (GeneID 55195),2,1.02,102,1.26,82.1
CCDC198 (GeneID 55195),3,0.132,84.5,0.525,82.2
LPGAT1 (GeneID 9926),1,-0.302,75.9,-0.866,107
LPGAT1 (GeneID 9926),2,-2.36,34.9,-1.28,54.6
LPGAT1 (GeneID 9926),3,-0.0286,81.3,-0.228,96.5
WDR87 (GeneID 83889),1,-1.04,61.2,-0.188,71.8
WDR87 (GeneID 83889),2,-0.679,68.4,1.25,55
WDR87 (GeneID 83889),3,-1.91,43.9,-1.42,71.3

Just “viable cells, % of control”, for 4 of the entries above:
GPR101 (GeneID 83550) #3 = 92.2
HMGN3 (GeneID 9324) #1 = 89.7
HMGN3 (GeneID 9324) #2 = 68
HMGN3 (GeneID 9324) #3 = 109
